In publication PMC4963039 one finds binding data, which are given here for one substance.

The chains behind the UniProt entries cited, without tags or fusion partners. Residues count along the entry.
UniProt Q14114, residues 33-963: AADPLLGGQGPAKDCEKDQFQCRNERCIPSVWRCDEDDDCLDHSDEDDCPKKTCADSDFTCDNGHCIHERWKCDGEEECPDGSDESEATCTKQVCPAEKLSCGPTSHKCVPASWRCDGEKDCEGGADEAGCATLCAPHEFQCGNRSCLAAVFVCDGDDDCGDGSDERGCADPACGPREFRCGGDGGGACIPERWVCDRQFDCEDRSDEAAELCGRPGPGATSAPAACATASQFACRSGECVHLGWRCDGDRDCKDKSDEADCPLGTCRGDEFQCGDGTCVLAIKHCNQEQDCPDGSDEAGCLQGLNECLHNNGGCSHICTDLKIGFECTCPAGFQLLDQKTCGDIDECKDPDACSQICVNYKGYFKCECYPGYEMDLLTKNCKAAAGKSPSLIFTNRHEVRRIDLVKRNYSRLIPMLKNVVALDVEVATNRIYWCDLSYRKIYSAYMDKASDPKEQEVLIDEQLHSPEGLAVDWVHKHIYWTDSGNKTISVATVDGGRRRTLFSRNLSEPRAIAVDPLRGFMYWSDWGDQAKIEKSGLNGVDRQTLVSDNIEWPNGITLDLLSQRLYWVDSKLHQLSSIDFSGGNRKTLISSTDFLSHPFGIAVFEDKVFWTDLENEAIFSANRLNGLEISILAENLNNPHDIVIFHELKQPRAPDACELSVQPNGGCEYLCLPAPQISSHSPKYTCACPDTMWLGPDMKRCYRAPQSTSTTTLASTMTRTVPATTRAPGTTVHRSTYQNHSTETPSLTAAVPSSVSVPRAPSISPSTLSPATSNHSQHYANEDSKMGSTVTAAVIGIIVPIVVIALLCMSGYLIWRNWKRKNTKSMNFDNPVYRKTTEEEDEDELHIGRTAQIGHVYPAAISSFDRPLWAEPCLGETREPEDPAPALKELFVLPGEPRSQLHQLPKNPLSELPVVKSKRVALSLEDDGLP
UniProt P02749, residues 20-345: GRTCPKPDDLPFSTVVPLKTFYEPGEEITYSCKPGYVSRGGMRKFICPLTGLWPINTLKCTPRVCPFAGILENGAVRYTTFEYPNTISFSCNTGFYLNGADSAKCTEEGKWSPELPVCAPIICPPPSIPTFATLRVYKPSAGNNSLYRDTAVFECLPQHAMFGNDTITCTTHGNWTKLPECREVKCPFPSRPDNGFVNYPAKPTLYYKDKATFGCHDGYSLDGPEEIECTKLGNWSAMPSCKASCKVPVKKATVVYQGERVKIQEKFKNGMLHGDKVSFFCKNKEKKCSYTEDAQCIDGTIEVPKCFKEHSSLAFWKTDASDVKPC

Test [1] has as its target apolipoprotein E receptor 2 (human (endogenous in HAEC)) (UniProt Q14114). The test is described as follows: co-IP + cross-linking; HAEC treated with the anti-β2-GPI mAb 3F8 (1 μg/ml) or polyclonal aPL (100 μg/ml), DTSSP cross-linker 1.5 mM 30 min RT, lysate, ApoER2 immunoprecipitated (anti-ApoER2 polyclonal, protein A/G agarose, 2 h, 4°C), β2-GPI detected by immunoblot with mAb 2aG4. On the technique in general: In western blotting, separated proteins are transferred to a membrane and probed.

Test [2] has the same target. Nature of the test: condition: only cells treated with control IgG or 1N11 alone, without the inducing antibody 3F8; co-IP + cross-linking; as a1, but cells treated with control IgG (C44) or 1N11 alone, without 3F8 or aPL.
Test [3] has the same target. The test is described as follows: condition: only with 1N11 (200 μg/ml) added to 3F8 (1 μg/ml); co-IP + cross-linking; as a1, cells treated with 3F8 (1 μg/ml) with 1N11 added (200 μg/ml).

Results are given in words; binding and its absence hold for the method and conditions named. Binding seen in cells or lysates may run through a third protein. Some entries that bind do so weakly or less than the wild type.

As for “β2-glycoprotein I (from UniProt P02749 20-345)”, the values for the binding result in test [1], in test [2] and in test [3] were “binds”, “no binding” and “no binding”, respectively.
